US20240270820A1 (ELANCO US, published 2024)
No constants are given. Whether binding was seen depends on the method and setting. Some binding calls cover weakened binding; strength is not graded here. Sequences can lack the tags named with a protein.

Experiments:
[1] = molecular target: T1, canine IL4 with C-terminal poly-His tag (canine) (UniProt O77762); experiment: BLI (Octet)
T1 sequence: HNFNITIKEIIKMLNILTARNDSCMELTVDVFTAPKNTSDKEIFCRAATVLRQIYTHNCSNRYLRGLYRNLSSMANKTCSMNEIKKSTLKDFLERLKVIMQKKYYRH

[2] = molecular target: T1, canine IL4 with C-terminal poly-His tag (canine); experiment: BLI (Octet), summary sentence of Example 4
[3] = molecular target: T1, canine IL4 with C-terminal poly-His tag (canine); experiment: BLI sequential binding; biotinylated fusion on streptavidin tips, IL4 at 30 µg/mL in PBS

Measured: binding

B1: canine IL4R-IL13R-IgGB (Fc fusion)
chain: SGSVKVLHEPSCFSDYISTSVCQWKMDHPTNCSAELRLSYQLDFMGSENHTCVPENREDSVCVCSMPIDDAVEADVYQLDLWAGQQLLWSGSFQPSKHVKPRTPGNLTVHPNISHTWLLMWTNPYPTENHLHSELTYMVNVSNDNDPEDFKVYNVTYMGPTLRLAASTLKSGASYSARVRAWAQTYNSTWSDWSPSTTWLNYYEPGGGSGTETQPPVTNLSVSVENLCTVIWTWDPPEGASPNCTLRYFSHFDNKQDKKIAPETHRSKEVPLNERICLQVGSQCSTNESDNPSILVEKCTPPPEGDPESAVTELQCVWHNLSYMKCTWLPGRNTSPDTNYTLYYWHSSLGKILQCEDIYREGQHIGCSFALTNLKDSSFEQHSVQIVVKDNAGKIRPSFNIVPLTSHVKPDPPHIKRLFFQNGNLYVQWKNPQNFYSRCLSYQVEVNNSQTETNDIFYVEEAKCQNSEFEGNLEGTICFMVPGVLPDTLNTVRIRVRTNKLCYEDDKLWSNWSQAMSIGENTDPTPKRENGRVPRPPDCPKCPAPEMLGGPSVFIFPPKPKDTLLIARTPEVTCVVVDLDPEDPEVQISWFVDGKQMQTAKTQPREEQFNGTYRVVSVLPIGHQDWLKGKQFTCKVNNKALPSPIERTISKARGQAHQPSVYVLPPSREELSKNTVSLTCLIKDFFPPDIDVEWQSNGQQEPESKYRTTPPQLDEDGSYFLYSKLSVDKSRWQRGDTFICAVMHEALHNHYTQESLSHSPGK
notes: also called canine IL4R-IL13R-Fc; Canine IL4R-IL13R-Fc (SINK)
binds: all assays above

B2: canine IL13R-IL4R-IgGB (Fc fusion)
chain: TETQPPVTNLSVSVENLCTVIWTWDPPEGASPNCTLRYFSHFDNKQDKKIAPETHRSKEVPLNERICLQVGSQCSTNESDNPSILVEKCTPPPEGDPESAVTELQCVWHNLSYMKCTWLPGRNTSPDTNYTLYYWHSSLGKILQCEDIYREGQHIGCSFALTNLKDSSFEQHSVQIVVKDNAGKIRPSFNIVPLTSHVKPDPPHIKRLFFQNGNLYVQWKNPQNFYSRCLSYQVEVNNSQTETNDIFYVEEAKCQNSEFEGNLEGTICFMVPGVLPDTLNTVRIRVRTNKLCYEDDKLWSNWSQAMSIGENTDPTGGGSGSGSVKVLHEPSCFSDYISTSVCQWKMDHPTNCSAELRLSYQLDFMGSENHTCVPENREDSVCVCSMPIDDAVEADVYQLDLWAGQQLLWSGSFQPSKHVKPRTPGNLTVHPNISHTWLLMWTNPYPTENHLHSELTYMVNVSNDNDPEDFKVYNVTYMGPTLRLAASTLKSGASYSARVRAWAQTYNSTWSDWSPSTTWLNYYEPKRENGRVPRPPDCPKCPAPEMLGGPSVFIFPPKPKDTLLIARTPEVTCVVVDLDPEDPEVQISWFVDGKQMQTAKTQPREEQFNGTYRVVSVLPIGHQDWLKGKQFTCKVNNKALPSPIERTISKARGQAHQPSVYVLPPSREELSKNTVSLTCLIKDFFPPDIDVEWQSNGQQEPESKYRTTPPQLDEDGSYFLYSKLSVDKSRWQRGDTFICAVMHEALHNHYTQESLSHSPGK
notes: also called Canis lupus IL13R-IL4R-Fc; canine IL13R-IL4R-Fc
binds: all assays above
